Experimental data from the supplement of paper PMC4371806.
In all, about 1,600 compounds were measured (“plate-normalized OD600 growth (mean of duplicates)”: median about 0.31, lowest 2% from about 0.23 on). The list shows a part of the results.

System: Escherichia coli BW25113
Assay: plate-normalized OD600 growth (mean of duplicates) (OD600 (normalized)); higher = more growth (less inhibition)
Conditions: 10 µM
Description: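 E. coli BW25113 in LB (100 µl, 96-well, no shaking) was exposed to 10 µM of each compound (here the ChemBridge subset of a ~30,000-member library) and grown at 37°C for 24 h or 15°C for 48 h, in duplicate. Growth was read as OD600 and the duplicate ODs were normalized across screening plates to correct plate-to-plate variation.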

Row | SMILES | plate-normalized OD600 growth (temperature: 15°C, 48 h) | plate-normalized OD600 growth (temperature: 37°C, 24 h)
1 | CC1(C)CC2CC(C)(CN2Cc2cccnc2)C1 (centres undefined) | 0.24 | 0.61
2 | CN(C)c1ccc(CN2CCN(c3ccc(F)cc3)CC2)cc1 | 0.253 | 0.628
3 | OCCN1CCN(Cc2ccc(Cl)c(Cl)c2)CC1 | 0.234 | 0.611
4 | COc1ccccc1N1CCN(Cc2ccc(N(C)C)cc2)CC1 | 0.234 | 0.615
5 | Cc1ccc2c(c1)C1CN(C)CCC1N2 (centres undefined) | 0.227 | 0.61
6 | OCCN1CCN(Cc2ccc(F)c(F)c2)CC1 | 0.247 | 0.612
7 | COc1ccc2c(c1)c(CCN)c(C)n2Cc1ccccc1 | 0.263 | 0.613
8 | CCCN1CCC(NC(C)CCCC(C)(C)O)CC1 (centres undefined) | 0.296 | 0.653
9 | Cc1ccccc1-n1c(/C=C/c2ccccc2[N+](=O)[O-])nc2ccccc2c1=O | 0.239 | 0.651
10 | COC1CCCCC1NC1CCCCC1 (centres undefined) | 0.234 | 0.614
11 | CCOc1ccc2c(c1)c(C(=O)O)c(C)n2C | 0.262 | 0.625
12 | CC(C)(C)C1CCC(N2CCOCC2)CC1 (centres undefined) | 0.242 | 0.605
13 | Cc1[nH]c2ccccc2c1CCCNC1CCCCC1 | 0.264 | 0.644
14 | COc1ccc(Br)cc1CN1CCN(C)CC1 | 0.26 | 0.617
15 | O=C1NC(=O)C(c2ccccc2)(c2ccccc2)C(=O)N1 | 0.266 | 0.666
16 | O=C(CN1CCCC1=O)NCCc1ccccc1 | 0.261 | 0.645
17 | CCCN1CCC(NCC2CCCO2)CC1 (centres undefined) | 0.264 | 0.665
18 | COc1ccc(N=C(C)c2c(O)[nH]c(=O)[nH]c2=O)cc1 | 0.242 | 0.607
19 | OCCN1CCN(Cc2ccc(Cl)cc2Cl)CC1 | 0.23 | 0.624
20 | Cc1cccc(CN2CCN(c3ccccc3)CC2)c1 | 0.223 | 0.663
21 | O=c1cccc2n1C[C@H]1C[C@H]2CN(Cc2cccc(Cl)c2Cl)C1 | 0.28 | 0.659

Molecules above with nitrogen in an aromatic ring (7):
Row | SMILES | plate-normalized OD600 growth (temperature: 15°C, 48 h) | plate-normalized OD600 growth (temperature: 37°C, 24 h)
1 | CC1(C)CC2CC(C)(CN2Cc2cccnc2)C1 (centres undefined) | 0.24 | 0.61
7 | COc1ccc2c(c1)c(CCN)c(C)n2Cc1ccccc1 | 0.263 | 0.613
9 | Cc1ccccc1-n1c(/C=C/c2ccccc2[N+](=O)[O-])nc2ccccc2c1=O | 0.239 | 0.651
11 | CCOc1ccc2c(c1)c(C(=O)O)c(C)n2C | 0.262 | 0.625
13 | Cc1[nH]c2ccccc2c1CCCNC1CCCCC1 | 0.264 | 0.644
18 | COc1ccc(N=C(C)c2c(O)[nH]c(=O)[nH]c2=O)cc1 | 0.242 | 0.607
21 | O=c1cccc2n1C[C@H]1C[C@H]2CN(Cc2cccc(Cl)c2Cl)C1 | 0.28 | 0.659

Following part.

Row | SMILES | plate-normalized OD600 growth (temperature: 15°C, 48 h) | plate-normalized OD600 growth (temperature: 37°C, 24 h)
22 | COc1cccc(CN2CCN(c3cccc(Cl)c3)CC2)c1 | 0.26 | 0.623
23 | OCCN1CCN(Cc2cccc(F)c2)CC1 | 0.245 | 0.648
24 | COc1cc(CN2C[C@@H]3C[C@@H](C2)c2cccc(=O)n2C3)cc(I)c1O | 0.263 | 0.634
25 | Fc1ccc(CN2CCN(c3cccc(Cl)c3)CC2)c(F)c1 | 0.253 | 0.623
26 | CC1CCCC(N2CC(C)OC(C)C2)C1 (centres undefined) | 0.255 | 0.604
27 | N#CC(/C=C/c1ccccc1)N1CCOCC1 (centres undefined) | 0.236 | 0.614
28 | CN1CCN(c2ccc([N+](=O)[O-])c(N3CCOCC3)c2)CC1 | 0.266 | 0.627
29 | CCOc1cc(/C=C/[N+](=O)[O-])ccc1O | 0.209 | 0.585
30 | Cc1cccc(C)c1-n1nnnc1C1(Nc2cccc(O)c2)CCCCC1 | 0.252 | 0.643
31 | OC(c1ccccc1)(c1ccccc1)c1cnc[nH]1 | 0.262 | 0.618
32 | COc1cccc(CNCCc2ccccc2F)c1 | 0.236 | 0.608
33 | O=[N+]([O-])c1ccc(N2CCN(Cc3c(F)cccc3Cl)CC2)cc1 | 0.238 | 0.627
34 | COc1ccc(C(=O)CCN(C)C)cc1F | 0.245 | 0.616
35 | COc1ccc(N2CCN(Cc3ccc(N(C)C)cc3)CC2)cc1 | 0.271 | 0.65
36 | C/C(=C\c1ccc(N(C)C)cc1)[N+](=O)[O-] | 0.244 | 0.633
37 | O=C(Cc1ccccc1)NC(Cc1ccc(Cl)cc1)C(=O)O (centres undefined) | 0.247 | 0.611
38 | Cc1ccccc1CN1CCN(c2ccc([N+](=O)[O-])cc2)CC1 | 0.23 | 0.605
39 | O=[N+]([O-])c1ccc(NCCOc2ccccc2F)c2ncccc12 | 0.242 | 0.607
40 | Fc1ccc(N2CCN(CCc3ccccc3)CC2)cc1 | 0.24 | 0.615
41 | COc1ccc(CN2C[C@@H]3C[C@@H](C2)c2cccc(=O)n2C3)cc1Br | 0.266 | 0.634
42 | Fc1ccc(CCNCc2ccc3c(c2)OCO3)cc1 | 0.257 | 0.619
